We go through 54 sequences from publication PMC7819943, “Rice protein-binding microarrays: a tool to detect cis-acting elements near promoter regions in rice”.

The list shows a part of the results.

This assay addresses T1, OsSMF1 (Oryza sativa, UniProt Q6ZLB0 1-436).
T1 sequence: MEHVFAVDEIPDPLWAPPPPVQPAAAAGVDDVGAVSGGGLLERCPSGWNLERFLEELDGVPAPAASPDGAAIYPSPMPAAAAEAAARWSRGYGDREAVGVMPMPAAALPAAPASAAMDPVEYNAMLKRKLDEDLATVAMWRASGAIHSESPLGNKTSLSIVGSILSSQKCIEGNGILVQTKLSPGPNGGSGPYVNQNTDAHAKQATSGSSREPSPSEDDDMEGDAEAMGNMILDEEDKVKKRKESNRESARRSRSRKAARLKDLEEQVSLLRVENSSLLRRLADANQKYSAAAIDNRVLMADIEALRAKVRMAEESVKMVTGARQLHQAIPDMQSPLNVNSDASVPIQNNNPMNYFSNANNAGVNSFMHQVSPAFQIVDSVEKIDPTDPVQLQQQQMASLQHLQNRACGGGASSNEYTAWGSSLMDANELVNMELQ
The assay can be described thus: protein-binding microarray (RPBM); PBS, 2% BSA, 51.3 ng/ul salmon testes DNA, 50 uM zinc acetate, 200 nM TF, 25 C, 1 h; high values mean tight binding. To be noted: protein: recombinant; tags: N-terminal polyhistidine and DsRed monomer fusion (pET32a); chain copies: 2; label: CyDye5-dUTP incorporated in the synthesized complementary strand; 3' TTTTT single-stranded linker to array surface; dsDNA, one strand shown. The method in brief: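 Binding signal is defined as the fluorescence intensity of each feature in arbitrary units, read on an Axon 4000B scanner. Transcription factors with N-terminal polyhistidine and DsRed fusions came from E. coli BL21-CodonPlus and were purified on Ni–NTA. They were incubated at 200 nM for 1 h at 25 °C on a custom Agilent array that had been made double-stranded with Cy5-dUTP, with 50 µM zinc acetate present, and the array was washed.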
Turning to “ACAAAAGAGTAGATATGCCACATCACTAGCAGTTAGTCATCGGAGTCACCTAGTGCAG”, the binding signal is 13400 fluorescence intensity (a.u.).
The figure for “GAAGCTGAGCGACGCCACGGCCTGCACCACCACCTGGTCGCGGAGTCACCTAGTGCAG” is 3430 fluorescence intensity (a.u.); for “CTCTGTTCACTCCACCAAACTCCTTCGATTGATCAAATGACGGAGTCACCTAGTGCAG” it is 47200 fluorescence intensity (a.u.).
In the case of “AAAGGCCACGCCTTTGCCTCGTCAGTTATCTCTTCGTTTCCGGAGTCACCTAGTGCAG”, the binding signal is 5220 fluorescence intensity (a.u.).
“ACAAACGTCCACAGACTTCCACAACACGTACACACTCATCCGGAGTCACCTAGTGCAG”: the binding signal was 3350 fluorescence intensity (a.u.).
Turning to “CGCTGCGGCTGCAGCAGCAAGCAGCATGCTCAGCTGCATGCGGAGTCACCTAGTGCAG”, the binding signal is 3380 fluorescence intensity (a.u.).
Take “GGGCGGAGCTGGTGCGGAGGGTGGCGTGGCAGCTCGAGGACGGAGTCACCTAGTGCAG”: the binding signal was 5260 fluorescence intensity (a.u.).
For the sequence “TCATCTCGAAGCTGGTGACGGAGCGGCGGCACACCGACTTCGGAGTCACCTAGTGCAG”, the binding signal was 34400 fluorescence intensity (a.u.).
The figure for “AGTTAAACATACTAGCTCTAGAGTGTTGTATAAATTGGAGCGGAGTCACCTAGTGCAG” is 3290 fluorescence intensity (a.u.); for “AGCCTGTCTCCGCGTTGCACGAATCTTGATGCGATTTGGACGGAGTCACCTAGTGCAG” it is 29000 fluorescence intensity (a.u.).
The figure for “TCCCTTGTGTCACCTATGACTTTCATCTCAATACTCTCTCCGGAGTCACCTAGTGCAG” is 3170 fluorescence intensity (a.u.); for “CAGAATTGTAATTCTGGGCTTTACGTGGGCCGTAATTGGACGGAGTCACCTAGTGCAG” it is 3790 fluorescence intensity (a.u.); for “GCACTTTTGTGCAGGCCACGGGCGTCCCCATCACCACCATCGGAGTCACCTAGTGCAG” it is 3720 fluorescence intensity (a.u.).
Under “GAGAAATTTGCGCATGGAAGCACCGGAATTCCACGTTATCCGGAGTCACCTAGTGCAG” stands 4300 fluorescence intensity (a.u.).
With “TTTCTCTCCGTCTCGTCTCCTACTCCCTCTTCTCTTCTCCCGGAGTCACCTAGTGCAG”, the binding signal was 29700 fluorescence intensity (a.u.).
For “GTGAATTCAGTCTGACCTGTGGTGGGGCCATCGCATGCCACGGAGTCACCTAGTGCAG”, the binding signal was 4090 fluorescence intensity (a.u.).
Turning to “AAAGTTACGCGTTACTATACGTGTCGAGATGTACAAAAGTCGGAGTCACCTAGTGCAG”, the binding signal was 3880 fluorescence intensity (a.u.).
The figure for “TAGCGCTCCATGTCCATGACGTGTGCATGGCCACCGCAGACGGAGTCACCTAGTGCAG” is 12900 fluorescence intensity (a.u.); for “TCACTGCTTATAGCTTAGCTTCCTATATAGCTCGATCGATCGGAGTCACCTAGTGCAG” it is 19000 fluorescence intensity (a.u.); for “AATCTTTATTTTGCAAATGGTGACATAAGCTGTGGCTTTGCGGAGTCACCTAGTGCAG” it is 3520 fluorescence intensity (a.u.).
The figure for “CAGCAGGCGCCCTCGCCGCGCAGTTCCTGCCACAGGGCTGCGGAGTCACCTAGTGCAG” is 3170 fluorescence intensity (a.u.); for “GTTCGTCGATGACCTGACCTTGGTAGTTTTACCTGTGTTCCGGAGTCACCTAGTGCAG” it is 3360 fluorescence intensity (a.u.).
Take “AACGTGGCTAATATATGCCACCTCGGATGGAGTCAGCGCTCGGAGTCACCTAGTGCAG”: the binding signal was 7010 fluorescence intensity (a.u.).
Under “CAGTGACGGGAAAGGGAAGACACGTGTGGCATGACCGCATCGGAGTCACCTAGTGCAG” stands 4900 fluorescence intensity (a.u.); under “ACAGCCTGCAATATTGCACGTGTACTTGTGGCCGTAACAGCGGAGTCACCTAGTGCAG”, 3300 fluorescence intensity (a.u.); under “GCTGAGTATATGTGTGTGCACACGTCTTCCAACGTGTCATCGGAGTCACCTAGTGCAG”, 10400 fluorescence intensity (a.u.).
As for “AGACAAATCTTTTGAGTCTAATTACGTCATGATTTGACCACGGAGTCACCTAGTGCAG”, the binding signal is 9060 fluorescence intensity (a.u.).
Under “ATCTCTCTAGCACGGCCGGATGAATCAACCACGTACGCGGCGGAGTCACCTAGTGCAG” stands 5260 fluorescence intensity (a.u.); under “AGCTCCAATGGCGTCCCTCACACCTCCCCGCCCACCATTCCGGAGTCACCTAGTGCAG”, 4170 fluorescence intensity (a.u.).
In the case of “AATGTAGTACTGGATATGACACATCCTAGTACTATGAATCCGGAGTCACCTAGTGCAG”, the binding signal is 3250 fluorescence intensity (a.u.).
For “AATGCGGGAATCCACATAATTTCCATTTGAATCATACAAACGGAGTCACCTAGTGCAG”, the binding signal was 3250 fluorescence intensity (a.u.).
Under “GAATAAGGAGAGCATGACGGAAAATATGACGACGATGGTACGGAGTCACCTAGTGCAG” stands 3770 fluorescence intensity (a.u.); under “TAATAAGCATGCACGCATTATGATATGGCGGTTCTGGTCGCGGAGTCACCTAGTGCAG”, 3450 fluorescence intensity (a.u.).
Under “ACGATGATGTGCAGGGTGTCCGGTGGCGGCTCCCCTCCCCCGGAGTCACCTAGTGCAG” stands 3230 fluorescence intensity (a.u.); under “TTGCCAGTTTGCCACCTCGCGTCATGGATCGCCCTTTTGCCGGAGTCACCTAGTGCAG”, 3950 fluorescence intensity (a.u.).
The figure for “CTTGGAATTACCCATGTCAGTGAGCCAGTGAGGTCAGCGTCGGAGTCACCTAGTGCAG” is 3840 fluorescence intensity (a.u.); for “GGTAGCTGATACAGGTATGCAGACGAAAGATCACACCTATCGGAGTCACCTAGTGCAG” it is 32500 fluorescence intensity (a.u.).
For “TCCTCCCACGCTTCTTCTTCTTCTTCTTCTTCCCTTTCCCCGGAGTCACCTAGTGCAG”, the binding signal is 9800 fluorescence intensity (a.u.).
Under “TATTGTTCAGAGATTAAGATGACGATACCTGCTAGTATAACGGAGTCACCTAGTGCAG” stands 3980 fluorescence intensity (a.u.).
Under “ACAAGTTGAAACTAGCTCGCGATCTGTGTTGCGTGAGCGTCGGAGTCACCTAGTGCAG” stands 3470 fluorescence intensity (a.u.).
Under “TCACTCTCGGCCTTCCTTCCACGGCAGCGCCACCCACTGCCGGAGTCACCTAGTGCAG” stands 23600 fluorescence intensity (a.u.); under “CAACCTCAAGCCGAAGACCATATCATTGACCACATCTTGCCGGAGTCACCTAGTGCAG”, 3700 fluorescence intensity (a.u.); under “GCGTGTTCCTCCTCCTACCTATTCCCGGGCCCGCACGTCACGGAGTCACCTAGTGCAG”, 3320 fluorescence intensity (a.u.).
“TGGACCCAGACCGTCCGATCAGTAACGTGCGCACCAGATTCGGAGTCACCTAGTGCAG”: the binding signal was 3270 fluorescence intensity (a.u.).
In the case of “GGGAGGCGCCGCGTGGCGGAGACCGCGTCCGCCTTCGTGACGGAGTCACCTAGTGCAG”, the binding signal was 3540 fluorescence intensity (a.u.).
Take “CAGATGGGTCGGGCCAAAATGTGCTGCGTGGGACACGTGACGGAGTCACCTAGTGCAG”: the binding signal is 3400 fluorescence intensity (a.u.).
The figure for “TATAACTACTGCACGAGAATGACGTAGGGTGATGACACGACGGAGTCACCTAGTGCAG” is 8520 fluorescence intensity (a.u.); for “TAGTCCATCACCCTCGCTCAGTGACTCATATCACCCCACACGGAGTCACCTAGTGCAG” it is 11200 fluorescence intensity (a.u.).
The figure for “AAGAGCTTCATGCGCGTAAGAATGTCAGAATTGCACTCTGCGGAGTCACCTAGTGCAG” is 3140 fluorescence intensity (a.u.).
The figure for “GAAACGCTGCTTCTCATGACCCAACCCTGGAATCCTTGACCGGAGTCACCTAGTGCAG” is 4090 fluorescence intensity (a.u.).
As for “TCATGCGTATGTTAATTATATATGATTATTAGAAATTTTACGGAGTCACCTAGTGCAG”, the binding signal was 30200 fluorescence intensity (a.u.).
For the sequence “TTAAATAGAATGCTGACTGAACTGTCACGTGTAGACCAAACGGAGTCACCTAGTGCAG”, the binding signal is 3480 fluorescence intensity (a.u.).
For “CAGGCTAGGCTGGATAGGAAAGAGATGGGAATCCTAGTCACGGAGTCACCTAGTGCAG”, the binding signal was 3540 fluorescence intensity (a.u.).
The figure for “TCGGCGGCGCTACCGCGGATGACGACGCACCCGACGACGACGGAGTCACCTAGTGCAG” is 3760 fluorescence intensity (a.u.).
